From patent US20160201132A1, “GENE EXPRESSION BIOMARKERS OF LAQUINIMOD RESPONSIVENESS” (Teva Pharmaceutical Industries Ltd., priority 2013, published 2016)
Further values from the same series stand in other lists.

Tested on: PBMC of RRMS patients
Assay: Gene expression microarray analysis (HG-U133A-2) of PBMC from RRMS patients treated with LAQ, ancillary study to ALLEGRO
Type: in vivo, human
Excerpt: The goal of this ancillary study was to characterize gene expression changes and corresponding biological mechanisms induced in PBMC of RRMS patients by LAQ treatment. According to ALLEGRO clinical trial inclusion criteria, 25 patients were randomly assigned to receive LAQ (n=13, age 38.8±2.3 years, female/male ratio: 8/5) or placebo (n=12, age 37.2±3.4 years, female/male ratio: 8/4).
Peripheral blood samples were obtained from RRMS patients at baseline before start of LAQ treatment or placebo, after 0, 1, 6 and 24 month of treatment (visit 0, 1, 6 and 7 according to ALLEGRO clinical trial protocol correspondently) for gene microarray analysis.
Briefly, 1) Peripheral blood mononuclear cells (PBMC) were obtained from RRMS patients that participated in ALLEGRO and were treated daily with 0.6 mg LAQ or placebo. PBMC were subjected for gene expression analysis (HU-133A-2-Affymatrix arrays) at baseline and at 1 and 6 months of LAQ treatment; 2) Data was analyzed by Partek Genomics Solution software. Most informative genes (MIGs) were defined as those that differentiated between groups with p<0.01. Gene functional annotation, enrichment and pathway analysis were performed by Ingenuity software. For each time point, genes that changed in placebo group were excluded from further analysis; and 3) Verification of LAQ related mechanism was performed by Western blot.
PBMC were extracted from 15 ml peripheral blood, separated by Ficoll-Hypaque gradient. Total RNA was extracted using both Trizol (Invitrogen, USA) and Phase-Lock-Gel columns (Eppendorf, Germany) including a DNase digestion step. RNA integrity was assessed by RNA Experion automated electrophoresis system (Bio-Rad Laboratories, Hercules, Calif.).
Probe synthesis using 3 μg total RNA, hybridization, detection, and scanning was performed according to the standard Affymetrix, Inc. USA protocols; cDNA was synthesized using the Two-Cycle cDNA Synthesis Kit (Affymetrix, Inc., USA), and in-vitro transcription performed with the GeneChip IVT Labeling Kit (Affymetrix, Inc., USA). The biotin-labeled IVT-RNA was hybridized to HG-U133A-2 arrays containing 18,400 gene transcripts, each corresponding to 14,500 well-annotated human genes, washed in a GeneChip Fluidics Station 450 (Hewlett Packard, USA, GeneArray-™ scanner G2500A) and scanned according to the manufacturer's protocol (Affymetrix, Inc., USA).
Data analysis was performed on Partek Genomics Solution software (www.partek.com; Partek Incorporated, St. Louis, Mo.). Expression values were computed from raw CEL files by applying the Robust Multi-Chip Average (RMA) background correction algorithm. RMA correction included: 1) values background correction; 2) quintile normalization; 3) log 2 transformation; and 4) median polish summarization. The ANOVA, Repeated Measures and correlation analysis implicated in Partek software ware applied to evaluate LAQ effects. Most informative genes MIGs were defined as those that differentiated between experimental groups with p<0.01. All p-values were calculated for False Discovery Rate (FDR) multiple test correction at p=0.05.
Additionally, significance of individual genes was tested by parametric T-test and non parametric Mann-Whitney test using Bootstrapping approach based on repeated permutations of the data with 5% FDR for multiple testing.
Gene functional annotation, enrichment, and pathway analyses to identify the leading biological pathways that operated under LAQ treatment were performed by Ingenuity Pathways Analysis software (www.ingenuity.com).
ANOVA analysis was used to compare PBMC gene expression after 1, 6 or 24 month of LAQ treatment with baseline gene expression.
For each time point inventors performed analysis source of variation in dataset. (FIG. 1). Age, gender and batch effects were considered as confounders regarding LAQ or Placebo related changes. For each time point genes associated with Placebo effect were evaluated and excluded from further analysis. […]

## CCN(C(=O)c1c(O)c2c(Cl)cccc2n(C)c1=O)c1ccccc1 [LAQ, 5-chloro-N-ethyl-4-hydroxy-1-methyl-2-oxo-N-phenyl-1,2-dihydroquinoline-3-carboxamide]
Gene FARP2, six months of treatment
  Fold-Change (4.0 vs. 0.0): −1.148
Gene FBLN1, after six months of LAQ
  Fold-Change (4.0 vs. 0.0): −1.125
Gene FBXO24, six months of treatment
  Fold-Change (4.0 vs. 0.0): −1.1555
Gene FERMT2, six months of treatment
  Fold-Change (4.0 vs. 0.0): −1.156
Gene FGA, PBMC, six months of LAQ treatment
  Fold-Change (4.0 vs. 0.0): −1.111
Gene FGF8, six months of treatment
  Fold-Change (4.0 vs. 0.0): −1.151
Gene FGF17
  Fold-Change (4.0 vs. 0.0): −1.187
Gene FGF18, after six months of LAQ
  Fold-Change (4.0 vs. 0.0): −1.226
Gene FGFR2
  Fold-Change (4.0 vs. 0.0): −1.186
Gene FGFR2, after six months of LAQ
  Fold-Change (4.0 vs. 0.0): −1.137
Gene FGL1, six months of treatment
  Fold-Change (4.0 vs. 0.0): −1.1602
Gene FHL5, after six months of LAQ
  Fold-Change (4.0 vs. 0.0): −1.132
Gene FICD, after six months of LAQ
  Fold-Change (4.0 vs. 0.0): −1.255
Gene FIGF, six months of treatment
  Fold-Change (4.0 vs. 0.0): −1.161
Gene FKSG2, after six months of LAQ
  Fold-Change (4.0 vs. 0.0): −1.27
Gene FLG, PBMC, six months of LAQ treatment
  Fold-Change (4.0 vs. 0.0): −1.104
Gene FLJ11292, after six months of LAQ
  Fold-Change (4.0 vs. 0.0): −1.232
Gene FLJ20184, after six months of LAQ
  Fold-Change (4.0 vs. 0.0): −1.232
Gene FLJ40330, after six months of LAQ
  Fold-Change (4.0 vs. 0.0): −1.134
Gene FLRT3
  Fold-Change (4.0 vs. 0.0): −1.187
Gene FMO1, six months of treatment
  Fold-Change (4.0 vs. 0.0): −1.146
Gene FMO6P, after six months of LAQ
  Fold-Change (4.0 vs. 0.0): −1.137
Gene FOLH1, PBMC, six months of LAQ treatment
  Fold-Change (4.0 vs. 0.0): −1.109
Gene FOXD2, after six months of LAQ
  Fold-Change (4.0 vs. 0.0): −1.143
Gene FOXL1, PBMC, six months of LAQ treatment
  Fold-Change (4.0 vs. 0.0): −1.112
Gene FOXP3
  Fold-Change (4.0 vs. 0.0): −1.193
Gene FRMD4B, six months of treatment
  Fold-Change (4.0 vs. 0.0): −1.1607
Gene FRZB
  Fold-Change (4.0 vs. 0.0): −1.1881
Gene FSTL1, after six months of LAQ
  Fold-Change (4.0 vs. 0.0): −1.66
Gene FUCA1, PBMC, six months of LAQ treatment
  Fold-Change (4.0 vs. 0.0): 1.673
Gene FURIN, after six months of LAQ
  Fold-Change (4.0 vs. 0.0): −1.235
Gene FUT2, after six months of LAQ
  Fold-Change (4.0 vs. 0.0): −1.225
Gene FUT3, after six months of LAQ
  Fold-Change (4.0 vs. 0.0): −1.345
Gene FUT6, after six months of LAQ
  Fold-Change (4.0 vs. 0.0): −1.126
Gene FZR1, after six months of LAQ
  Fold-Change (4.0 vs. 0.0): −1.269
Gene G6PC, after six months of LAQ
  Fold-Change (4.0 vs. 0.0): −1.131
Gene GAB1, after six months of LAQ
  Fold-Change (4.0 vs. 0.0): −1.138
Gene GABBR2, after six months of LAQ
  Fold-Change (4.0 vs. 0.0): −1.1332
Gene GABRR1, PBMC, six months of LAQ treatment
  Fold-Change (4.0 vs. 0.0): −1.09
Gene GART, after six months of LAQ
  Fold-Change (4.0 vs. 0.0): −1.129
Gene GC, after six months of LAQ
  Fold-Change (4.0 vs. 0.0): −1.128
Gene GCK, six months of treatment
  Fold-Change (4.0 vs. 0.0): −1.144
Gene GDPD2, six months of treatment
  Fold-Change (4.0 vs. 0.0): −1.15
Gene GEM, after six months of LAQ
  Fold-Change (4.0 vs. 0.0): −1.402
Gene GGA2, six months of treatment
  Fold-Change (4.0 vs. 0.0): −1.158
Gene GH2, after six months of LAQ
  Fold-Change (4.0 vs. 0.0): −1.135
Gene GJA3, six months of treatment
  Fold-Change (4.0 vs. 0.0): −1.144
Gene GJA5, six months of treatment
  Fold-Change (4.0 vs. 0.0): −1.144
Gene GJA9, after six months of LAQ
  Fold-Change (4.0 vs. 0.0): −1.143
Gene GJB1
  Fold-Change (4.0 vs. 0.0): −1.19
Gene GJB4
  Fold-Change (4.0 vs. 0.0): −1.192
Gene GJC2, six months of treatment
  Fold-Change (4.0 vs. 0.0): −1.151
Gene GK, after six months of LAQ
  Fold-Change (4.0 vs. 0.0): −1.267
Gene GLI2, after six months of LAQ
  Fold-Change (4.0 vs. 0.0): −1.143
Gene GLP1R
  Fold-Change (4.0 vs. 0.0): −1.1849
Gene GLP1R, after six months of LAQ
  Fold-Change (4.0 vs. 0.0): −1.269
Gene GLP1R, six months of treatment
  Fold-Change (4.0 vs. 0.0): −1.148
Gene GLRA2, six months of treatment
  Fold-Change (4.0 vs. 0.0): −1.15
Gene GLYR1
  Fold-Change (4.0 vs. 0.0): −1.186
Gene GNA12, after six months of LAQ
  Fold-Change (4.0 vs. 0.0): −1.2511
Gene GNAT1, after six months of LAQ
  Fold-Change (4.0 vs. 0.0): −1.235
Gene GNAT1, six months of treatment
  Fold-Change (4.0 vs. 0.0): −1.16
Gene GPR17, PBMC, six months of LAQ treatment
  Fold-Change (4.0 vs. 0.0): −1.112
Gene GPR20, after six months of LAQ
  Fold-Change (4.0 vs. 0.0): −1.23
Gene GPR32, six months of treatment
  Fold-Change (4.0 vs. 0.0): −1.156
Gene GPR52, after six months of LAQ
  Fold-Change (4.0 vs. 0.0): −1.234
Gene GPR63, six months of treatment
  Fold-Change (4.0 vs. 0.0): −1.154
Gene GPR64, after six months of LAQ
  Fold-Change (4.0 vs. 0.0): −1.13
Gene GPR88, PBMC, six months of LAQ treatment
  Fold-Change (4.0 vs. 0.0): −1.1216
Gene GPR98, PBMC, six months of LAQ treatment
  Fold-Change (4.0 vs. 0.0): −1.118
Gene GPR107, after six months of LAQ
  Fold-Change (4.0 vs. 0.0): −1.232
Gene GPR176
  Fold-Change (4.0 vs. 0.0): −1.177
Gene GRHL2, six months of treatment
  Fold-Change (4.0 vs. 0.0): −1.156
Gene GRM1, PBMC, six months of LAQ treatment
  Fold-Change (4.0 vs. 0.0): −1.111
Gene GSC2, after six months of LAQ
  Fold-Change (4.0 vs. 0.0): −1.142
Gene GSTA3, PBMC, six months of LAQ treatment
  Fold-Change (4.0 vs. 0.0): −1.116
Gene GUCA2A, six months of treatment
  Fold-Change (4.0 vs. 0.0): −1.155
Gene GYG2, after six months of LAQ
  Fold-Change (4.0 vs. 0.0): −1.142
Gene HAB1
  Fold-Change (4.0 vs. 0.0): −1.177
Gene HAMP, after six months of LAQ
  Fold-Change (4.0 vs. 0.0): −1.2333
Gene HAPLN1, after six months of LAQ
  Fold-Change (4.0 vs. 0.0): −1.137
Gene HAPLN2
  Fold-Change (4.0 vs. 0.0): −1.191
